# Results taken from paper PMC12412326 (Current Issues in Molecular Biology, 2025).
# Plain letter strings leave the end groups untold. Strings that start with PEPTIDE1 are HELM notation: dots part the residues, brackets hold end groups and non-standard residues.
# Experiment: general procedure: Fmoc solid-phase peptide synthesis; Rink amide resin (loading capacity: 0.6 mmol/g); HBTU/HOBt, DIPEA
# Conditions: whole synthesis, analytical HPLC; MALDI-TOF MS
row,Substance,final HPLC purity [%]
1,FLGALFKVASKLVPAAICSFSKKC,90.09
2,PEPTIDE1{F.A.K.W.A.F.K.W.L.K.K.[am]}$$$$V2.0,97.899
